These are yes or no findings as the source states them, for the method shown. Some binding calls cover weakened binding; strength is not graded here. For some of these results: Where a sequence is shown, tags or fusion partners need not be part of it.

For assay [1], the target named is T1, recombinant human OX40/His fusion protein (Novoprotein, CB17) (human) (UniProt P43489).
T1 sequence: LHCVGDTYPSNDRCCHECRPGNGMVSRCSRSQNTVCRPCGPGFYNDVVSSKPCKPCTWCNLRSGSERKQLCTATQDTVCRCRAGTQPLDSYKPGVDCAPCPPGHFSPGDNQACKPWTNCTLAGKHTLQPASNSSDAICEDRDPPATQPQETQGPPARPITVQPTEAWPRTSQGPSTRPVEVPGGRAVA
As to the kind of experiment: BLI (Octet RED96), off-rate ranking.

The target in another assay is T2, ΔCRD1-2 (human) (UniProt P43489).
T2 sequence (truncated extracellular domain, looked up): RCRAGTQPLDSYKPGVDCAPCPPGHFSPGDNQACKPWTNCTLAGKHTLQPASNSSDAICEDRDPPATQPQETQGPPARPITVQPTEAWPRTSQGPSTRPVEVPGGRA
As to the kind of experiment: ELISA, OX40 variant coated at 1 µg/ml, HRP-labeled secondary antibody, OD 450 nm.

A further assay addresses T3, ΔCRD1 (human) (UniProt P43489).
T3 sequence (truncated extracellular domain, looked up): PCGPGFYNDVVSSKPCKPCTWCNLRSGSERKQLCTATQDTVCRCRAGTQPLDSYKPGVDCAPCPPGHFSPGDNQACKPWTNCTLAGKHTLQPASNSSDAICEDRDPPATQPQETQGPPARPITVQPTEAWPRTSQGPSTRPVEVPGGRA
The description is as above.

B1: HuEM1007-044-16 (antibody, human IgG1, kappa, L234A L235A, V domains shown)
VH: EVQLQQSGAEVKKPGSSVKVSCKASGHAFSSSWMNWVKQRPGKGLEWIGRIYPGDEITNYNAKFKDKATLTADKSTSTAYMELSSLRSEDTAVYYCARDLLMPYWGQGTLVTVSS
VL: DIVMTQTPLSLPVTPGEPASISCRSSKSLLYSNAITYLYWYLQKPGQSPQLLIYQMSNLAPGVPDRFSSSGSGTDFTLKISRVEAEDVGVYYCAQNLELPFTFGQGTKLEIKR
Regarding B1, the binding entry (in assay [1]; in the assay with ΔCRD1-2 (human); with ΔCRD1 (human)) was “binds” each time.

B2: EM1007-mAb044c-11 (antibody, human IgG1, kappa, L234A L235A, V domains shown)
VH: QVQLQQSGPELVKPGASVTISCKASGHAFSSSWMNWVKQRPGKGLEWIGRIYPGDEITNYNAKFKDKATLTADKSSSTAYMQLSSLTFEDSAVYFCARDLLMPYWGQGTLVTVSA
VL: DIVMTQTAFSNPVTLGTSASISCRSSKSLLYSNAITYLYWYLQKPGQSPHLLIYQMSNLAPGVPDRFSSSGSGTDFTLRISRVEAEDVGIYYCAQNLELPFTFGSGTKLEIKR
As to B2, in assay [1], the binding entry was “binds”.
